Counter-ions that a name gives are not always drawn.
Experiments:
[1] = tested on: normal cells/cancer cells; assay: Selective index SIc; settings: SIc = log (IC50 against FHs 74 Int / x¯ -IC50 against cancer intestinal cells)
[2] = tested on: normal cells/diarrheagenic bacteria; assay: Selective index SIa; settings: SIa = log (IC80 against FHs 74 Int / x¯ -MIC against diarrheagenic strains)
[3] = tested on: probiotic bacteria/diarrheagenic bacteria; assay: Selective index SIb; settings: SIb = log (x¯ -MIC against probiotic strains / x¯ -MIC against diarrheagenic strains)

| SMILES | SI (c) normal cells/cancer cells [1] | SI (a) normal cells/diarrheagenic bacteria [2] | SI (b) probiotic bacteria/diarrheagenic bacteria [3] | SI (b) probiotic bacteria/diarrheagenic bacteria ([3]; listed as ferron) | SI (b) probiotic bacteria/diarrheagenic bacteria ([3]; listed as nitroxoline) | SI (b) probiotic bacteria/diarrheagenic bacteria ([3]; listed as sanguinarine) |
| --- | --- | --- | --- | --- | --- | --- |
| Oc1cccc2cccnc12 [8HQ, 8-hydroxyquinoline] | 1.1 | – | – | – | – | – |
| COc1ccc2cc3[n+](cc2c1OC)CCc1cc2c(cc1-3)OCO2 [BR, berberine chloride] | −1.1 | – | – | – | – | – |
| O=C(N[C@H](CO)[C@H](O)c1ccc([N+](=O)[O-])cc1)C(Cl)Cl [CA, chloramphenicol] | −1.1 | 1.8 | −0.4 | – | – | – |
| CO/N=C(\C(=O)N[C@@H]1C(=O)N2C(C(=O)O)=C(CSc3nc(=O)c(=O)[nH]n3C)CS[C@H]12)c1csc(N)n1 [CF, ceftriaxone sodium] | 0 | 1.2 | −0.4 | – | – | – |
| Oc1c(Cl)cc(Cl)c2cccnc12 [CLX, 5,7-dichloroquinolin-8-ol] | −0.7 | – | 1 | – | – | – |
| O=S(=O)(O)c1cc(I)c(O)c2ncccc12 [FRN, 7-iodo-8-hydroxyquinoline-5-sulfonic acid] | −0.5 | −1.2 | −0.3 | −1 to −0.03 | – | – |
| O=[N+]([O-])c1ccc(O)c2ncccc12 [NXL, 5-nitroquinolin-8-ol] | −0.6 | −1.2 | 0.2 | – | 0.2–1.1 | – |
| O=C(O)c1ccccc1O [SA, salicylic acid] | −1.1 | −0.7 | −0.2 | – | – | – |
| C[n+]1cc2c3c(ccc2c2ccc4cc5c(cc4c21)OCO5)OCO3 [SG, sanguinarine chloride] | 0.1 | −1.9 | −0.6 | – | – | −1 to −0.03 |
| O=C(OC[C@H]1O[C@@H](OC(=O)c2cc(O)c(O)c(OC(=O)c3cc(O)c(O)c(O)c3)c2)[C@H](OC(=O)c2cc(O)c(O)c(OC(=O)c3cc(O)c(O)c(O)c3)c2)[C@@H](OC(=O)c2cc(O)c(O)c(OC(=O)c3cc(O)c(O)c(O)c3)c2)[C@@H]1OC(=O)c1cc(O)c(O)c(OC(=O)c2cc(O)c(O)c(O)c2)c1)c1cc(O)c(O)c(OC(=O)c2cc(O)c(O)c(O)c2)c1 [TA, tannic acid] | −0.7 | −1.9 | −0.03 | – | – | – |
| CN[C@H](CC(C)C)C(=O)N[C@H]1C(=O)N[C@@H](CC(N)=O)C(=O)N[C@H]2C(=O)N[C@H]3C(=O)N[C@H](C(=O)N[C@H](C(=O)O)c4cc(O)cc(O)c4-c4cc3ccc4O)[C@H](O)c3ccc(c(Cl)c3)Oc3cc2cc(c3O[C@@H]2O[C@H](CO)[C@@H](O)[C@H](O)[C@H]2O[C@H]2C[C@](C)(N)[C@H](O)[C@H](C)O2)Oc2ccc(cc2Cl)[C@H]1O [VM, vancomycin hydrochloride] | 0 | 0.3 | −1 | – | – | – |

Source: PMC7558399, “In Vitro Selective Growth-Inhibitory Activities of Phytochemicals, Synthetic Phytochemical Analogs, and Antibiotics against Diarrheagenic/Probiotic Bacteria and Cancer/Normal Intestinal Cells” (Pharmaceuticals, 2020)
